Experimental data: publication PMC2705796
No constants are given. Whether binding was seen depends on the method and setting. For some of these results: Binding seen in cells or lysates may run through a third protein. Some binding calls cover weakened binding; strength is not graded here.

Protein sequences, listed by entry. Tags and fused reporters are not part of them. Lines headed by an entry give the natural chain unless they say otherwise; changes in a name come on top. Residues count along the entry.
FLAG-NURF301ΔC (amino acids 1–1557) (Q9W0T1, residues 1-1557): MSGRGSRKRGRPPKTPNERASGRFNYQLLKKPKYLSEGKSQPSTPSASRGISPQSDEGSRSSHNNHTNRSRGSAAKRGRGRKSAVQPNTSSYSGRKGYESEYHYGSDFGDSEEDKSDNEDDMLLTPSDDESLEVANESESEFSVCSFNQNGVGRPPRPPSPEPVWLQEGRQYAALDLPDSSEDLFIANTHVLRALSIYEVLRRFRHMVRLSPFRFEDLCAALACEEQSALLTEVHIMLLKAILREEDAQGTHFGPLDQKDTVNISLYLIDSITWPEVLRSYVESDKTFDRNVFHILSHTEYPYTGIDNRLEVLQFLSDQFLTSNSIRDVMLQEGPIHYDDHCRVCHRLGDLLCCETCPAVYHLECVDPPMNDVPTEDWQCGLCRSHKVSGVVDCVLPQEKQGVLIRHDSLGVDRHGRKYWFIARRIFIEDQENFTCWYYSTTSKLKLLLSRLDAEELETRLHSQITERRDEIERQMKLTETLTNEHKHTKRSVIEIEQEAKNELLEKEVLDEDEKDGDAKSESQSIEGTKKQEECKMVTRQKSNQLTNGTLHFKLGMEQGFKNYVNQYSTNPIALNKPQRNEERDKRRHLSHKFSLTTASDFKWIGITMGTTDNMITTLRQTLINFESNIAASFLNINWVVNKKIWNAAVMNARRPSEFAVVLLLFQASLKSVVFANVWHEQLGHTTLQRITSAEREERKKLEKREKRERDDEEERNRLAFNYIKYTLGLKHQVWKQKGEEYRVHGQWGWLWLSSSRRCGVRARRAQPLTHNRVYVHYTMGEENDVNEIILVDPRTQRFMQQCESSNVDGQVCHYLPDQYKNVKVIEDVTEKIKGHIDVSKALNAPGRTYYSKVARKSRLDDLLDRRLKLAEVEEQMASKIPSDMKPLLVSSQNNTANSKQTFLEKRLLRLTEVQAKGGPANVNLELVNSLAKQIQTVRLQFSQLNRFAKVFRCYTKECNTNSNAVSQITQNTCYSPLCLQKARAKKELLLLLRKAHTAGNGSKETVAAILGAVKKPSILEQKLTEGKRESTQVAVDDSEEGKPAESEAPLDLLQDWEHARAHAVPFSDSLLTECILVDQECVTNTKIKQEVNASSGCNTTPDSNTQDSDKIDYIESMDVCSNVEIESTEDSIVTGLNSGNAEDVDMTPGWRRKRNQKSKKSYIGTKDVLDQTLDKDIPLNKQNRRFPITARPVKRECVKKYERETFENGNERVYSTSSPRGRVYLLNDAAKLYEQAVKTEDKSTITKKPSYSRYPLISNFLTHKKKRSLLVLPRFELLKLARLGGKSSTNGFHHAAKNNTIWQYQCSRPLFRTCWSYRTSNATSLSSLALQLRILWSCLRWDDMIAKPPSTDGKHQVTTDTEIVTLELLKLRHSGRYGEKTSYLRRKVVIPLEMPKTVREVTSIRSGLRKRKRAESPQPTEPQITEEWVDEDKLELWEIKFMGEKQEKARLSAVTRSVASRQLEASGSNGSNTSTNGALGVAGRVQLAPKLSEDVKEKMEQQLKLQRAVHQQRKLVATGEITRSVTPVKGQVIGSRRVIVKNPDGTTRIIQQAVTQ
GST-Bromo (NURF301 aa 2525–2669) (Q9W0T1, residues 2525-2669): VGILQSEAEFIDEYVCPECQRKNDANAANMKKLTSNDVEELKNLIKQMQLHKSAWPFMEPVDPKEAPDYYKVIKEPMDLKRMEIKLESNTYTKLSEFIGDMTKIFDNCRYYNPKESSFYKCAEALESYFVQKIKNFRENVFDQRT
UniProt Q24572: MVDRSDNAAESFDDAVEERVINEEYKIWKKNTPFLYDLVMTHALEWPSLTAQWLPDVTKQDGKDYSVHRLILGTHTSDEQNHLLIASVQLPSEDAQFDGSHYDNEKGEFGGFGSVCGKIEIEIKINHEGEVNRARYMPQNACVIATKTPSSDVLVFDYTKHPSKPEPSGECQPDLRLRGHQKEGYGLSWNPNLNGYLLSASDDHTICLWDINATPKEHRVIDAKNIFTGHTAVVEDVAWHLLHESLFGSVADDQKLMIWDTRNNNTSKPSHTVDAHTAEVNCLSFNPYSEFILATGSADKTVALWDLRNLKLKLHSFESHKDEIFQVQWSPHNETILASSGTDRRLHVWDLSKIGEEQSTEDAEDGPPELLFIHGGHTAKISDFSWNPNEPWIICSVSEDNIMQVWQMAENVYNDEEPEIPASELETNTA
UniProt Q24368: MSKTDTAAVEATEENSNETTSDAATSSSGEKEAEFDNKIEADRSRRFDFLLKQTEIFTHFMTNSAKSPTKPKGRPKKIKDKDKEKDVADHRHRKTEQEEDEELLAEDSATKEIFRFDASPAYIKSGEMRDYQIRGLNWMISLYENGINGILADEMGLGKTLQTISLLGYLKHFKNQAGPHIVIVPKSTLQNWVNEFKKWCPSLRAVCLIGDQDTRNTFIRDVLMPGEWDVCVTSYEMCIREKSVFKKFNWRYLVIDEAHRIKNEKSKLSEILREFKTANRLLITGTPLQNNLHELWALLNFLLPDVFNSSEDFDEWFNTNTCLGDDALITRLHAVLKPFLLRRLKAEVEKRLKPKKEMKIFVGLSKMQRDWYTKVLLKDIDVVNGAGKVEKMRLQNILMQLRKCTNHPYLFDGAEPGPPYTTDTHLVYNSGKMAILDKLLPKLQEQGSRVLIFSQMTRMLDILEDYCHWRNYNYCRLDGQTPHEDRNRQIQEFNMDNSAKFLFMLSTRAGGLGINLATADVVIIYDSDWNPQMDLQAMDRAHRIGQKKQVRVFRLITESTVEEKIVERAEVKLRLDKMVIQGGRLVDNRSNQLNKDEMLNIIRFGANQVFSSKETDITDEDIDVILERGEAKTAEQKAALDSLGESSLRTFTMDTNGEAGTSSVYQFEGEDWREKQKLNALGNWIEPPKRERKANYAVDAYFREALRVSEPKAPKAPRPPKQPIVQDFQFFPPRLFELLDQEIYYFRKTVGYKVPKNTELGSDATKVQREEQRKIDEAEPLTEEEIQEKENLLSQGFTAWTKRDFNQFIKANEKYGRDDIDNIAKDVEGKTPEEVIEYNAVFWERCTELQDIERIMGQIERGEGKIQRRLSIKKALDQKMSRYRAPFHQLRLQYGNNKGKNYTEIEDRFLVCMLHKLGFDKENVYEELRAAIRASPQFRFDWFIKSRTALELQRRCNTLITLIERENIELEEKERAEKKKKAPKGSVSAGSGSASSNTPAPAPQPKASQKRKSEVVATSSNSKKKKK

Experiments:
[1] = target: GST-Bromo (NURF301 aa 2525–2669) (Drosophila) (UniProt Q9W0T1); assay: pull-down; reciprocal: GST-fusion protein (5 µg) as bait on Glutathione-Sepharose beads, 1 µg biotinylated tail peptide; 50 mM Tris, 150 mM NaCl, 0.1% NP-40, 4°C overnight; peptides detected with Streptavidin-HRP; both purified
[2] = target: FLAG-NURF301ΔC (amino acids 1–1557) (Drosophila) (UniProt Q9W0T1); assay: co-IP; SF9 cells co-infected with baculoviruses for FLAG-NURF301ΔC, ISWI, NURF55 and NURF38; FLAG-NURF301ΔC purified on anti-FLAG beads; other subunits detected by Western blotting

binding [2] | Molecule | binding [1]
– | unmodified H4 (1–21) tail peptide, biotinylated (from UniProt P62805 2-22) | no binding (tested: 1 µg tail peptide with 5 µg protein)
binds | MYC-NURF55 (from UniProt Q24572 1-430) | –
binds | HA-ISWI (from UniProt Q24368 1-1027) (enzyme) | –
binds | NURF38 (protein, UniProt O77460 1-338) MLAKITRSSFYASRAVGRLSGSIPTSPAALASNCRYIQIERKRTKSHEMALYETVEKGAKNSPSYSLYFKNKCGNVISPMHDIPLYANEEKTIYNMVVEVPRWTNAKMEISLKTPMNPIKQDIKKGKLRFVANCFPHKGYIWNYGALPQTWENPDHIEPSTGCKGDNDPIDVIEIGYRVAKRGDVLKVKVLGTIALIDEGETDWKIIAIDVNDPLASKVNDIADVDQYFPGLLRATVEWFKIYKIPDGKPENQFAFNGDAKNADFANTIIAETHKFWQNLVHQSPASGSISTTNITNRNSEHVIPKEEAEKILAEAPDGGQVEEVSDTVDTWHFIHLK | –
